Source: patent US20230123654A1 (priority 2020, published 2023)

Key:
[1] = system: Nav1.5 transfected cells (CHO); format: cell-based, Chinese hamster
[2] = system: Nav1.5 transfected cells (CHO)

With `CCN(CC)CC(=O)Nc1c(C)cccc1C` [Lidocaine, lidocaine] as the compound, how does the “ROS levels at high glucose” value [1] read?
Its value is “only partial ROS reduction”.

And the “effect on reduction in cell viability at high glucose” value [2]?
Its value is “only partially reduced the glucose-elicited cytotoxicity”.
